# Results of single-concentration screens

The values are deposited in ChEMBL (CHEMBL3988442, “University of Dundee, Small-Polar-MMV Screening Library” (2021)).

Mtb cholesterol medium: 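Growth of Mycobacterium tuberculosis over 4 days (cholesterol / DPPC medium with tyloxapol); the read-out is not stated. Compounds at 50 µM. The record gives no direction; compounds that gave an IC50 in retests scored well above the rest, so higher reads as more growth inhibition. Size under these conditions: about 69,000 compounds, about 370 of them at 50% or above in at least one test.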
Mtb glucose medium: 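Growth of Mycobacterium tuberculosis over 3 days (7H9 medium with glucose and tyloxapol); the read-out is not stated. Compounds at 50 µM. Higher reads as more growth inhibition (inferred: compounds with an IC50 in retests scored well above the rest). About 69,000 compounds were tested under these conditions; 1.1% (about 760) showed 50% or more at least once.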

Values are the deposited “Percent Effect”, in %.
The record does not define 0% and 100%; most values in the screen are far below 50% and negative numbers occur (in some assays of this library far below -100).
Compounds were drawn at random from those tested, without regard to their results.
Two or more numbers in one place are separate tests of the same structure; such repeats can differ widely.

SMILES: O=C(CN1CCCCC1Cn1cncn1)NCCc1ccc(F)cc1 (centres undefined)
Mtb cholesterol medium: -23.37
Mtb glucose medium: -13.37

SMILES: CC(C)n1cnnc1CN(C)C(=O)CCn1cnc2ccccc2c1=O
Mtb cholesterol medium: 0.8523
Mtb glucose medium: -2.036 & -3.493

SMILES: COc1ccc(CCN2CCC(N3CCN(C)C3=O)CC2)cc1
Mtb cholesterol medium: 0.2401
Mtb glucose medium: 1.335

SMILES: [H][C@@]12C[C@@H](O)CN1C[C@H](Cc1ccccc1)N(Cc1ccsc1)C2
Mtb cholesterol medium: 9.374 & 5.267
Mtb glucose medium: 2.185

SMILES: CCCc1cnc(C)nc1N1CCC(Cc2ccc(CO)cc2)C1 (centres undefined)
Mtb cholesterol medium: 31.53
Mtb glucose medium: 34.22

SMILES: NC(=O)c1csc(N2C[C@@H](CN3CCC(O)CC3)[C@@H](CO)C2)n1
Mtb cholesterol medium: 14.71
Mtb glucose medium: -3.427

SMILES: CCS(=O)(=O)c1ccc2oc([C@H]3CCN(Cc4ccncc4)C3)nc2c1
Mtb cholesterol medium: -25.69
Mtb glucose medium: -7.336 & -7.385

SMILES: COCCN1CCN(C(=O)C2CC=CC2)Cc2cccnc21
Mtb cholesterol medium: 5.502
Mtb glucose medium: -1.203

SMILES: O=C(c1ccc(O)c(Cl)c1)N1C[C@@H](CN2CCCCCC2)[C@@H](CO)C1
Mtb cholesterol medium: -17.18 & 5.763
Mtb glucose medium: 2.281

SMILES: CC(C)(C)C(=O)NCCC(=O)NS(=O)(=O)c1ccc2c(c1)OCCO2
Mtb cholesterol medium: -14
Mtb glucose medium: -3.654 & 2.011

SMILES: Cc1noc(C)c1CS(=O)(=O)C(C)C(=O)N(C)c1ccccc1 (centres undefined)
Mtb cholesterol medium: -6.13
Mtb glucose medium: -1.678

SMILES: CCC1=NC(SCC(=O)c2ccc(C)cc2)c2cc(CC)sc2N1 (centres undefined)
Mtb cholesterol medium: -15.74
Mtb glucose medium: -44.06

SMILES: COc1ccccc1N1CCC(CNCc2c(C)nn(C)c2OC)C1 (centres undefined)
Mtb cholesterol medium: 11.57
Mtb glucose medium: 14.93 & -1.029

SMILES: O=C1CC(c2ccncc2)C2(CCN(CCO)CC2)N1 (centres undefined)
Mtb cholesterol medium: -2.617
Mtb glucose medium: -5.245

SMILES: Cc1cnc(NCCCN2CCc3ccccc32)nc1
Mtb cholesterol medium: -10.8
Mtb glucose medium: 11.91 & 10.61

SMILES: COCC1CN(Cc2ccc(OC)cc2)Cc2nn(C)cc21.O=C(O)C(F)(F)F (centres undefined)
Mtb cholesterol medium: -37.92
Mtb glucose medium: -54.22

SMILES: CN(CC(=O)N1CCN(c2ccccn2)CC1)c1ccc(Cl)cn1
Mtb cholesterol medium: -1.526
Mtb glucose medium: 5.74 & 4.942

SMILES: CC(C)OCCN1CCc2cncnc2C1
Mtb cholesterol medium: -6.269
Mtb glucose medium: -43.61

SMILES: Cc1ccc(C(=O)NCc2cccnc2N(C)C)s1
Mtb cholesterol medium: 2.498
Mtb glucose medium: 10.34

SMILES: CCC(C)(C)c1cc(-c2c(C)nn(CCO)c2C)c(C#N)c(N)n1
Mtb cholesterol medium: 1.085
Mtb glucose medium: 26.74

SMILES: COc1ccc(F)c(CN2CCCC(O)(CNC3CCCCC3)C2=O)c1 (centres undefined)
Mtb cholesterol medium: 27.53
Mtb glucose medium: 10.38

SMILES: Cc1ccc(C)c(S(=O)(=O)NC(=O)c2ccc(C)[nH]c2=O)c1
Mtb cholesterol medium: -5.24
Mtb glucose medium: -71.32 & 4.27

SMILES: COc1cccc(CN(C)Cn2nc(C(C)(C)C)ccc2=O)c1
Mtb cholesterol medium: 1.686
Mtb glucose medium: 21.8

SMILES: CC(=O)N1CC(=O)N(c2ccsc2)CC12CCN(Cc1ccoc1)C2 (centres undefined)
Mtb cholesterol medium: -7.69 & -0.9477
Mtb glucose medium: 15.41

SMILES: O=C(O)C(F)(F)F.O=C(O)C(F)(F)F.[H][C@@]12COC[C@]1(COCc1cccc(C)n1)CN(c1cc(OC)ncn1)C2
Mtb cholesterol medium: 9.983
Mtb glucose medium: 6.855

SMILES: CCc1nccn1CCCn1ccnc1-c1[nH]cnc1C
Mtb cholesterol medium: 4.984
Mtb glucose medium: -15.5

SMILES: CCn1cnnc1CNC(=O)Cc1ccc2c(c1)OCCO2
Mtb cholesterol medium: -1.672
Mtb glucose medium: -19.12

SMILES: CS(=O)(=O)Cc1nc(CN2CCc3ccccc3CC2)cs1
Mtb cholesterol medium: -20.64
Mtb glucose medium: 3.578

SMILES: COc1ccc(C(C)NC(=O)Nc2nnc(C)s2)cc1OC (centres undefined)
Mtb cholesterol medium: -14.96
Mtb glucose medium: -4.668 & -4.869

SMILES: COC(=O)c1ccc(CCn2cnc(C#N)n2)cc1
Mtb cholesterol medium: -21.99
Mtb glucose medium: -16.67

SMILES: Cc1cc(C)n(CC2CCCN2CCc2ccncc2)n1 (centres undefined)
Mtb cholesterol medium: -9.049
Mtb glucose medium: -16.33

SMILES: Cc1nc(O)cc([C@@H]2CN(S(=O)(=O)N(C)C)C[C@H]2c2ccccc2F)n1
Mtb cholesterol medium: -0.6547 & -2.699
Mtb glucose medium: -7.888

SMILES: CCN1CC2(CCN(C(=O)C(C)Oc3ccc(F)cc3Cl)CC2)CC1=O (centres undefined)
Mtb cholesterol medium: 13.71
Mtb glucose medium: 3.268

SMILES: CN1CCC(N2CCOC[C@H]2c2nc(-c3ccncc3)c[nH]2)CC1
Mtb cholesterol medium: -28.17
Mtb glucose medium: -53.57 & 4.379

SMILES: CC(C#N)NS(=O)(=O)c1cccc(C(C)C)c1 (centres undefined)
Mtb cholesterol medium: 13.05
Mtb glucose medium: 5.515 & 30.34

SMILES: c1cc2c(cc1CSCc1noc(C3CC3)n1)OCCO2
Mtb cholesterol medium: 18.03 & 31.01
Mtb glucose medium: 28.78

SMILES: CN1CCN(Cc2cn3c(n2)CN(C(=O)N2CCOCC2)CC3)CC1.O=C(O)C(F)(F)F.O=C(O)C(F)(F)F
Mtb cholesterol medium: -17.49
Mtb glucose medium: -13.87

SMILES: COc1cc2nc(C)sc2cc1NC(=O)C(C)NC(N)=O (centres undefined)
Mtb cholesterol medium: -2.622 & -6.888
Mtb glucose medium: -4.815

SMILES: Cc1cnn(CC2CN(CC(=O)Nc3cc(C)on3)CCO2)c1 (centres undefined)
Mtb cholesterol medium: -0.08205
Mtb glucose medium: -1.645

SMILES: NC(=O)C1CCCN(Cc2ccc(C(=O)Nc3cnns3)cc2)C1 (centres undefined)
Mtb cholesterol medium: 0.6078
Mtb glucose medium: -11.12

For reference, 3 entries once more:

SMILES,Mtb cholesterol medium,Mtb glucose medium
O=C(CN1CCCCC1Cn1cncn1)NCCc1ccc(F)cc1 (centres undefined),-23.37,-13.37
Cc1cnc(NCCCN2CCc3ccccc32)nc1,-10.8,11.91 & 10.61
Cc1cnn(CC2CN(CC(=O)Nc3cc(C)on3)CCO2)c1 (centres undefined),-0.08205,-1.645